# US20250075147A1, “FRAGRANCE AND FLAVOR COMPOSITIONS COMPRISING NEW FLAVOR AND FRAGRANCE INGREDIENTS” (priority 2023, published 2025)
# How the values were obtained:
# odor evaluation panel = assay: Odor evaluation panel rating of odorants by Rate-All-That-Apply (RATA) method with 55-word odor lexicon, plus intensity and pleasantness; design: species or system human; details: for Floral: mean panelist score for odor label floral (RATA); for Fruity: mean panelist score for odor label fruity (RATA); for Spicy: mean panelist score for odor label spicy (RATA); for Sweet: mean panelist score for odor label sweet (RATA); for Pleasantness: mean panelist score for odor pleasantness
# [1] = Evaluation by trained and/or certified flavor or fragrance chemists or master perfumers; categorization by commercial prospect; details: category of commercial prospect, (A) highest > (B) > (C) > (D) lowest; (E) requires further study
Structure (SMILES),Floral (odor evaluation panel),Fruity (odor evaluation panel),Spicy (odor evaluation panel),Sweet (odor evaluation panel),Rating [1],Pleasantness (odor evaluation panel)
"OC1C2CC3CC(C2)CC1C3 (stereo not shown) [Compound 460, adamantan-2-ol]",0.056,0.028,0.361,0.056,(B),–
"CCNCc1ccncc1 [Compound 461, N-(pyridin-4-ylmethyl)ethanamine]",0,0,0.156,0.094,(D),3.594
"C=CC1CCC(C=C)C(C=C)C1 (stereo not shown) [Compound 464, 1,2,4-tris(ethenyl)cyclohexane]",0.324,0.206,0.471,0.588,(B),5.071
"COC(C)(C)CC(C)=O [Compound 465, 4-methoxy-4-methylpentan-2-one]",0.719,0.562,0.031,1.062,(D),4.906
"O=Cc1csc2ccccc12 [Compound 470, 1-benzothiophene-3-carbaldehyde]",0.361,0.361,0.167,0.806,(D),–
"CCOC(=O)C(CC(C)C)C(=O)OCC [Compound 471, diethyl 2-(2-methylpropyl)propanedioate]",0.444,2.306,0.111,1.722,(D),–
"CC(C)(C)OC(=O)Nc1nccs1 [Compound 472, tert-butyl N-(1,3-thiazol-2-yl)carbamate]",0.056,0,0,0.306,(D),–
"C=CCCCCCCC=C [Compound 473, deca-1,9-diene]",0.167,0.111,0,0.222,(E),–
"O=C1CC(c2ccccc2)C(=O)O1 (stereo not shown) [Compound 474, 3-phenyloxolane-2,5-dione]",0.056,0,0.083,0.167,(D),–
"Cc1cccc(C=O)c1O [Compound 478, 2-hydroxy-3-methylbenzaldehyde]",0.438,0.5,0.281,1.812,(D),5.997
"O=c1ccoc2ccccc12 [Compound 480, chromen-4-one]",0.889,0.583,0,1.25,(B),–
"CN1C(=O)c2ccccc2C1=O [Compound 481, 2-methylisoindole-1,3-dione]",0.062,0,0.062,0.125,(D),4.684
"CCOC(=O)C1CC(=O)C1 [Compound 482, ethyl 3-oxocyclobutane-1-carboxylate]",0.333,1.361,0,1.167,(A),–
"COc1ccc(C)c([N+](=O)[O-])c1 [Compound 484, 4-methoxy-1-methyl-2-nitrobenzene]",0.5,0,0.139,0.333,(B),–
"CC(C)(C)CCO [Compound 485, 3,3-dimethylbutan-1-ol]",0.452,0.516,0,0.742,(D),4.235
"COc1ccc(O)cc1OC [Compound 487, 3,4-dimethoxyphenol]",0,0,0.167,0.25,(B),–
"C=Cc1ccncc1 [Compound 489, 4-ethenylpyridine]",0.677,0.097,0.226,0.903,(D),4.461
"O=C(O)c1cscn1 [Compound 490, 1,3-thiazole-4-carboxylic acid]",0,0,0.281,0,(D),1.919
"COC(=O)C1(C(=O)OC)CCC1 [Compound 491, dimethyl cyclobutane-1,1-dicarboxylate]",0,0,0.083,0,(D),–
"CC(C)OC(=O)CCC(=O)OC(C)C [Compound 492, dipropan-2-yl butanedioate]",0.281,1.406,0.094,0.844,(A),6.372

Structure (SMILES),Floral (odor evaluation panel),Fruity (odor evaluation panel),Spicy (odor evaluation panel),Sweet (odor evaluation panel),Rating [1],Pleasantness (odor evaluation panel)
"CSc1ccc(N)cc1 [Compound 499, 4-methylsulfanylaniline]",0,0,0.529,0,(D),3.509
"CCOC(=O)CC(=O)c1ccncc1 [Compound 502, ethyl 3-oxo-3-pyridin-4-ylpropanoate]",0.312,0.531,0.094,0.656,(A),5.219
"OCC1CCOC1 (stereo not shown) [Compound 504, oxolan-3-ylmethanol]",0.056,0.306,0,0.361,(B),–
"CCOC(=O)CC(=O)C1CC1 [Compound 505, ethyl 3-cyclopropyl-3-oxopropanoate]",0.156,1.906,0,1.844,(A),6.553
"C[C@]12C(=O)OC(=O)[C@H]1[C@H]1C=C[C@@H]2C1 [Compound 507, (1S,2R,6S,7R)-2-methyl-4-oxatricyclo[5.2.1.02,6]dec-8-ene-3,5-dione]",0.314,0.4,0.257,0.314,(D),5.034
"c1ccc2[nH]ncc2c1 [Compound 511, 1H-indazole]",0.156,–,0.25,0.625,(D),4.728
"CNCCC(O)c1ccccc1 (stereo not shown) [Compound 512, 3-(methylamino)-1-phenylpropan-1-ol]",0,0.031,0.188,0.031,(D),4.806
"COc1cc(C)c(OC)c(OC)c1OC [Compound 514, 1,2,3,4-tetramethoxy-5-methylbenzene]",0.412,0,0.088,0.412,(A),5.4
"ON=C1CCCCC1 [Compound 515, N-cyclohexylidenehydroxylamine]",0,0.067,0.433,0.1,(C),3.443
"CN(CCO)c1ccccn1 [Compound 517, 2-[methyl(pyridin-2-yl)amino]ethanol]",0.387,0.161,0.032,0.645,(D),5.577
"COC(C)CCOC(=O)CCS (stereo not shown) [Compound 520, 3-methoxybutyl 3-sulfanylpropanoate]",0,0,0.094,0,(D),1.084
"COC(=O)c1ccc[nH]1 [Compound 526, methyl 1H-pyrrole-2-carboxylate]",0.5,0.812,0.438,1.781,(D),6.016
"N#CCSc1ccccc1 [Compound 527, 2-phenylsulfanylacetonitrile]",0.088,0,0.294,0.412,(D),4.382
"COc1ccc(OCC#N)cc1 [Compound 531, 2-(4-methoxyphenoxy)acetonitrile]",0.031,0.031,0.219,0.344,(C),4.291
"NC(=O)c1ccncc1 [Compound 533, pyridine-4-carboxamide]",0.433,1.467,0.033,1.6,(A),6.25
"Nc1cccnn1 [Compound 534, pyridazin-3-amine]",0.028,0,0,0.167,(D),–
"COc1ccccc1C(C)C [Compound 539, 1-methoxy-2-propan-2-ylbenzene]",0.111,0,0.306,0.111,(A),–
"CCOC(C)(OCC)OCC [Compound 541, 1,1,1-triethoxyethane]",0.111,0.139,0,0.556,(D),–
"CC(C)(C)OCCO [Compound 544, 2-[(2-methylpropan-2-yl)oxy]ethanol]",0.056,0.139,0.056,0.5,(A),–
